Results on one substance are retold here after PMC7977445.

Protein sequences, listed by entry. Tags and fused reporters are not part of them.
UniProt Q15910: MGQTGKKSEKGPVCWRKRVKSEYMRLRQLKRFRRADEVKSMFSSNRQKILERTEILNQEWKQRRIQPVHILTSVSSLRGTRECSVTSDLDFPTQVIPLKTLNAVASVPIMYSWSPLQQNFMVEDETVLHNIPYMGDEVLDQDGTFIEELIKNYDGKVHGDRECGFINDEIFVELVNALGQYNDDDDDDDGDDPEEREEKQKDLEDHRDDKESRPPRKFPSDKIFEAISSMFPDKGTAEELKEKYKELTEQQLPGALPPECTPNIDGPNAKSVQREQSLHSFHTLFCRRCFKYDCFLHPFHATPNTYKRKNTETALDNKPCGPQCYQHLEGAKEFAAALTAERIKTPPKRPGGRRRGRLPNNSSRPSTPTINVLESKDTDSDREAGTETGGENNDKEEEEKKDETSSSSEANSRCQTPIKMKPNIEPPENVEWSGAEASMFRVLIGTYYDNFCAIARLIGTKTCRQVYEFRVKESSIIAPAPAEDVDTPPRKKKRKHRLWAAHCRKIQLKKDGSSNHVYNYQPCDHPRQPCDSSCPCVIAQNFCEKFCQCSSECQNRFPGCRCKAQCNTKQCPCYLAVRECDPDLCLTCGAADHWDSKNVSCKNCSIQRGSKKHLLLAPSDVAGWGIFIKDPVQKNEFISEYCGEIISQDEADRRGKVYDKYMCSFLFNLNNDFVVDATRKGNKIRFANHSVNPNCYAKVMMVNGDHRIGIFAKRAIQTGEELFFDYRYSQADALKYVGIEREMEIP
UniProt P17844: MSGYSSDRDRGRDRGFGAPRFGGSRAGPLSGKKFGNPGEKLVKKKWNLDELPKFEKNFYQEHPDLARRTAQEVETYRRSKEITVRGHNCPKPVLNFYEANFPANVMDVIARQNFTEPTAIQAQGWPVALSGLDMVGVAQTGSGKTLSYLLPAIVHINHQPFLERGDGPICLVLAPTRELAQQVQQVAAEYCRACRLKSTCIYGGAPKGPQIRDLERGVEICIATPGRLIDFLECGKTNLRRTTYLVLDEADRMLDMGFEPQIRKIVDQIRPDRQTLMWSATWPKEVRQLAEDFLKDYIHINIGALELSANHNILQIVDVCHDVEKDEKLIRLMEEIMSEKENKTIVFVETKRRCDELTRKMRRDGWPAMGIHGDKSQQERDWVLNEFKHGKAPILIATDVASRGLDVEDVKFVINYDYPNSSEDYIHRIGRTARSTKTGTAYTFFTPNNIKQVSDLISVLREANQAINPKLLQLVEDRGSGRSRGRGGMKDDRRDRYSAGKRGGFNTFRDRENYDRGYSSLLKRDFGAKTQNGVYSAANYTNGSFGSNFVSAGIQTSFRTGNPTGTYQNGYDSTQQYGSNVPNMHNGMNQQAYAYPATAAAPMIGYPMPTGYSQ

This assay has as its target enhancer of zeste homologue 2 (EZH2) (human (endogenous in U87-MG)) (UniProt Q15910). Kind of assay: affinity purification with mass spectrometry; anti-EZH2 co-IP from lysates of U87-MG cells overexpressing PRADX or scramble; SDS-PAGE, Coomassie staining; the band that was brighter with PRADX overexpression analysed by MS.

Results are given in words; binding and its absence hold for the method and conditions named. Binding seen in cells or lysates may run through a third protein. A yes stands for co-enrichment or nearness to the bait. Other partners may have been found.

For the substance “DEAD box protein 5 (DDX5) (from UniProt P17844 1-614)”, the binding result was “binds”.
